These are yes or no findings as the source states them, for the method shown. Binding seen in cells or lysates may run through a third protein. Binding can be weak; no strength is given. Where a sequence is shown, tags or fusion partners need not be part of it.
Biological target: T1, Phf10-HA (wild type, zebrafish Phf10/Baf45a) (zebrafish) (UniProt Q6NWE1)
T1 sequence: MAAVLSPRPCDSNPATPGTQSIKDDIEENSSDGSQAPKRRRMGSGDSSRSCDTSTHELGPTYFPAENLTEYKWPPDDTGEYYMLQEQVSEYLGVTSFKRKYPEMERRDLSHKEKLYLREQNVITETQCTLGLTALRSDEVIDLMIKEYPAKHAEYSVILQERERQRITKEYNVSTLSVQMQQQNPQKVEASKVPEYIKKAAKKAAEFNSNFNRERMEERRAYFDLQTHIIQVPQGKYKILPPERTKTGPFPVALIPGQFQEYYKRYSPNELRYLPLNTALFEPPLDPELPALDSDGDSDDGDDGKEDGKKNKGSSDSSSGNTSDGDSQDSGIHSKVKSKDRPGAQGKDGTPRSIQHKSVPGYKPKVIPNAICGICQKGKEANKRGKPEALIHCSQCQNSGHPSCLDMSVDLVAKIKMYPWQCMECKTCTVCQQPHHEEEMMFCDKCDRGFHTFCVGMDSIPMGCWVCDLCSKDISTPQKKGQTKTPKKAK
Experiment: co-IP; anti-HA antibody (5 ug) immobilised with the Pierce Co-Immunoprecipitation Kit; RIPA lysates of about 200 zebrafish embryos at 6 hpf co-injected with bckdk mRNA and Phf10-HA or GFP-HA mRNA; incubated overnight at 4 °C; eluates blotted with anti-Bckdk antibody

Branched-chain ketoacid dehydrogenase kinase, Bckdk (zebrafish) (enzyme)
binding: binds

— paper PMC12669676
